Part of at least one peptide drawing is inferred or uncertain, most often the ends. Where no end group is shown, it is not given here.
Test system: Caco-2 cell monolayers
Test: Trans-epithelial transport of D-[14C]-mannitol and L-[3H]-proline in presence of DPV
Format: cell-based
Conditions: 30 μg/ml
Description: Trans-epithelial transport experiments were carried out.

In the case of GKRKKKGKLGKKRDP [DPV7], the “effect on amounts of D-[14C]-mannitol and L-[3H]-proline associated with the cells at the end of the experiment” value (Caco-2, 8 hours, FIG. 4) was “did not affect” and the “effect on transport of D-[14C]-mannitol or L-[3H]-proline” value (Caco-2, FIG. 3) was “did not affect”.
